Assay [1] concerns the target T1, Elk-1 (Ets-like protein-1), endogenous in HEK293 cells (human (endogenous in HEK293)) (UniProt P19419).
T1 sequence: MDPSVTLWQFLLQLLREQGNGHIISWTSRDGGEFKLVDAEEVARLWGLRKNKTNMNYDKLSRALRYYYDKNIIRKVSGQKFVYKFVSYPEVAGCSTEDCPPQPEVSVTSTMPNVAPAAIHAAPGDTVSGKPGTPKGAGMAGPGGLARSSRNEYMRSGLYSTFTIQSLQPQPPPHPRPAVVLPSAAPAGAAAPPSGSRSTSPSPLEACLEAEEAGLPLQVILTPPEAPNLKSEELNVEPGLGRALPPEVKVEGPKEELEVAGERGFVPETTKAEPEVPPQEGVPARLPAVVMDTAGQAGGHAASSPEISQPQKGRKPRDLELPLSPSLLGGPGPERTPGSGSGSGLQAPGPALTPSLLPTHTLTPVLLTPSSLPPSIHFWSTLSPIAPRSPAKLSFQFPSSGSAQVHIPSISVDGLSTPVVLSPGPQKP
Put plainly: co-IP; reciprocal: whole cell lysates of HEK293 cells transfected with Flag-PADI4; endogenous Elk-1 precipitated with anti-Elk-1 antibody, normal rabbit IgG as control; western blot with anti-PADI4.

Chains of the proteins cited; added tags and fusions are not shown.
UniProt Q9UM07: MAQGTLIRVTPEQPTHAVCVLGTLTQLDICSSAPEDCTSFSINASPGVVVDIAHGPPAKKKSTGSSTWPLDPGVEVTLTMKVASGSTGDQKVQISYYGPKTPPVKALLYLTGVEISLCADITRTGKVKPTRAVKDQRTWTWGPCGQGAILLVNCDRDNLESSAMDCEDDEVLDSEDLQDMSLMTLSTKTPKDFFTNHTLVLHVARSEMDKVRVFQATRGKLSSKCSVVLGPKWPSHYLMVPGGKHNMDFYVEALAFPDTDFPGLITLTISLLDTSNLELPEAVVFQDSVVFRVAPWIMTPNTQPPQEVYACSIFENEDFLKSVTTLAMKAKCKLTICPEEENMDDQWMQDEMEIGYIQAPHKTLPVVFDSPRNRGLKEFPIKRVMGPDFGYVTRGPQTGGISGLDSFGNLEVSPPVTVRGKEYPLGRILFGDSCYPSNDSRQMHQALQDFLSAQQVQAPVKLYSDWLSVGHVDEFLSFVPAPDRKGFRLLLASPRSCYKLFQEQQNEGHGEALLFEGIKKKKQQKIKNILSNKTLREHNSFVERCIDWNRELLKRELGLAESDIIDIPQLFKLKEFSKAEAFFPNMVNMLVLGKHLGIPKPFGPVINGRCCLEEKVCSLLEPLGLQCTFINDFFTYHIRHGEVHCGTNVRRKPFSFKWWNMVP

The target of assay [2] is Flag-tagged PADI4 (peptidylarginine deiminase IV) (human) (UniProt Q9UM07). Put plainly: co-IP; whole cell lysates of HEK293 cells transfected with Flag-PADI4 or control vector; precipitated with anti-Flag M2 affinity gel; western blot with anti-Elk-1, anti-phospho-Elk-1 and anti-PADI4. (In general: A western blot detects proteins with antibodies after separation by electrophoresis.)

These are yes or no findings as the source states them, for the method shown. Binding seen in cells or lysates may run through a third protein. Some entries that bind do so weakly or less than the wild type.

Take “Flag-tagged PADI4 (peptidylarginine deiminase IV) (from UniProt Q9UM07 1-663) (enzyme)”: the binding result in assay [1] was “binds”.

B1: Elk-1 (Ets-like protein-1), endogenous in HEK293 cells (protein, UniProt P19419-1 1-428)
chain: T1 sequence
As for B1, in assay [2], the binding result is recorded as “binds”.

These data come from PMC3107201.
